Experimental findings from US20050260575, “Method for identifying substances useful for treating inflammation using the response element to the ikbalpha ror receptor” (published 2005) are described below.

Experiment in all cases: activity in cells
One data set concerns the target T1, RORα1 (Homo sapiens) (UniProt P35398).
T1 sequence (looked up, limits assumed): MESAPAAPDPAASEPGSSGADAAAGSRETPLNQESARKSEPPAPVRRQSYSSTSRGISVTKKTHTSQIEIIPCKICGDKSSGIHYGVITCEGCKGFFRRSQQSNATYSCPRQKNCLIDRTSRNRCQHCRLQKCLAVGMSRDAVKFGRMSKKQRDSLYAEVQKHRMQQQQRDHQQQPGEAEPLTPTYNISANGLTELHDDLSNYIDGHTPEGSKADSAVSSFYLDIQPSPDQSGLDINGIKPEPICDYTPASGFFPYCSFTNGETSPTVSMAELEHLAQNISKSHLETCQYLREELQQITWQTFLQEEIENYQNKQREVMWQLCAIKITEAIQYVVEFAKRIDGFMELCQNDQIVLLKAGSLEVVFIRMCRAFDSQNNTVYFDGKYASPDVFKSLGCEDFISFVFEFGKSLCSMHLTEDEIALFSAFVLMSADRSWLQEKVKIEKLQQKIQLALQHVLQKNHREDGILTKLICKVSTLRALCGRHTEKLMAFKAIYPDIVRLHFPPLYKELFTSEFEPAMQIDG
The settings on record: (IκBα-RORE)2-TK-Luc in PAC1A cells, strong induction; protein in cells; protein details: pSG5-hRORα1 expression vector; only the site is given.

Another data set concerns T2, RORα2 (Homo sapiens).
T2 sequence (looked up, limits assumed): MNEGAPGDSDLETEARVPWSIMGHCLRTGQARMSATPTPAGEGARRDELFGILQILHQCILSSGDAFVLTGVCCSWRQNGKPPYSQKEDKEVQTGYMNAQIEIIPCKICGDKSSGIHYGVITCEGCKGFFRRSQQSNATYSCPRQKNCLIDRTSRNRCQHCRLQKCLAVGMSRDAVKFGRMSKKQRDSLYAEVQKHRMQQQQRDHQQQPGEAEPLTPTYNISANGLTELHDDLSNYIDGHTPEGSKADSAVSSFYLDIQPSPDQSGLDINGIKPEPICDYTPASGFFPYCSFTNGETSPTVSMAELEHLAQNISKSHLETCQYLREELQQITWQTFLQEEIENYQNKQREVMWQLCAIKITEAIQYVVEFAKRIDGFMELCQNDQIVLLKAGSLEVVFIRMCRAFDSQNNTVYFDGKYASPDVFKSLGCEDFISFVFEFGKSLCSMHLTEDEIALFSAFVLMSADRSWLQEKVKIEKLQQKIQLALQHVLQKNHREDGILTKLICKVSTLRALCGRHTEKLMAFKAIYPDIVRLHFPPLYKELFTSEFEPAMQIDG
The settings on record: (IκBα-RORE)2-TK-Luc in PAC1A cells, no induction; protein in cells; protein details: pSG5-hRORα2 expression vector; only the site is given.

In a further data set the test system is T3, RORα3 (Homo sapiens).
T3 sequence (looked up, limits assumed): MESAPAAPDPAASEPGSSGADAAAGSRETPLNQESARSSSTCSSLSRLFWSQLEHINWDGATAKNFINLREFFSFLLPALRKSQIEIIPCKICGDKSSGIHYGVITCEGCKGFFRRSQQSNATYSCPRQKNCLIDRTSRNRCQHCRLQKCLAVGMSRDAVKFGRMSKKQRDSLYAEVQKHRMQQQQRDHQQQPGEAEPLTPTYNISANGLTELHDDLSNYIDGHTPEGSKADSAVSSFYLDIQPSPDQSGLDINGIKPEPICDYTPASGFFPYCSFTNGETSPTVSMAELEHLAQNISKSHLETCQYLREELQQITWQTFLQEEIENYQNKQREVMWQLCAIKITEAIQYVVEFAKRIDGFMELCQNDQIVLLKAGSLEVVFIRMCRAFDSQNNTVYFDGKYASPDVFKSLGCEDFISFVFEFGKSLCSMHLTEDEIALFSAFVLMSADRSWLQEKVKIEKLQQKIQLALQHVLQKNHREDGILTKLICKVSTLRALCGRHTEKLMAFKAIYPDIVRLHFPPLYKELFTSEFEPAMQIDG
The settings on record: (IκBα-RORE)2-TK-Luc in PAC1A cells, no induction; protein in cells; protein details: pSG5-hRORα3 expression vector; only the site is given.

For part of these data: Negatives hold for the conditions tested. Tags and fusion partners may be left off the protein sequences shown.

On to “GAGCACAATGTAGGTCAGATAG (double strand) [IκBα-RORE]”, for which the “activity on this sequence” value is reported as “active” with RORα1 (Homo sapiens), “not active” in the data set on RORα2 (Homo sapiens) and “not active” in the data set on RORα3 (Homo sapiens).
